From patent publication US20120135912A1 (PERSEID THERAPEUTICS, published 2012)

B1: 2D-VCAM-1 variant Clone 146 (ligand, not shown: small tags and cut ends)
chain: FKIETTPESRYLAQIGDSVSLTCSTTGCESPLFFWRPLLDSPLNGKVTNEGTTSTLTMNPVSFGNEHSYLCTARCESRSLEKGIQVEIYSFPKDPEIHLSGPLEAGKPITVKCSVADVYPFDRLEIDLLKGDHLMKSQEFLEDADRKSLETKSLEVTFTPVIEDIGKVLVCRAKLHIDEMDSVPTVRQAVKELQVYISP
B2: 2D-VCAM-1 variant Clone 46 (ligand)
chain: B1 chain with L32F, F34S, L38Q, S41A, R74T, S79K
notes: also called Clone 046; not shown: His tag
B3: 2D-VCAM-1 variant Clone 59 (ligand)
chain: B1 chain with L32F, F34S, R74T, S79K, L141F, D145A, R146W
notes: also called Clone 059; not shown: His tag
B4: 2D-VCAM-1 variant Clone 47 (ligand)
chain: B1 chain with L32F, F34S, R74T, S79K
notes: also called Clone 047; not shown: His tag
B5: human 2D-VCAM-1 (ligand)
chain: B1 chain with L32F, F34S, P37T, L38Q, L39I, R74T, S79K
notes: also called wild type 2D-VCAM-1; wt-2D-VCAM-1; not shown: His tag

Molecular target: guinea pig VLA4 on guinea pig splenocytes (guinea pig)
Test: flow cytometry on guinea pig splenocytes, 50 ug/ml, 1 mM MnCl2 (activated VLA4)

| binding | Binder |
| --- | --- |
| binds | B1 |
| binds | B2 |
| binds | B3 |
| binds | B4 |

Molecular target: guinea pig VLA4 on guinea pig splenocytes (guinea pig)
Test: flow cytometry on guinea pig splenocytes, with and without 1 mM MnCl2

| binding | Binder |
| --- | --- |
| no binding (tested: 50 ug/ml) | B5 |

Molecular target: guinea pig VLA4 on guinea pig splenocytes (guinea pig)
Test: flow cytometry on guinea pig splenocytes, polypeptide at 50 ug/ml, detected with biotinylated anti-human VCAM-1 and streptavidin-PE, with and without 1 mM MnCl2 (Example 21A)

| binding | Binder |
| --- | --- |
| binds | B1 |
| binds | B2 |
| binds | B3 |
| binds | B4 |

Where a chain is given by its changes, count along the chain named. Results are given in words; binding and its absence hold for the method and conditions named. For part of these data: Binding calls can cover weak binding; strength is not graded here.
